Assay results reported in patent US20250263459A1, “STABILIZED PACAP PEPTIDE” (SENJU PHARMACEUTICAL CO., LTD., priority 2019, published 2025).
Part of at least one peptide drawing is inferred or uncertain, most often the ends.

Experiment: Stability test 1: survival rate of peptide in phosphate buffer (pH 7.0) after storage, HPLC
Type: physicochemical
Settings: 100 μM peptide, phosphate buffer pH 7.0, 40° C., 4 weeks (Table 8)
Protocol: The 1.0 mM peptide solutions were then diluted with phosphate buffer to 100 μM. […] The prepared peptide solutions were incubated for one month or 2 months in a 40° C. thermostatic bath to obtain stored samples.
Using the total weight of the aqueous peptide solution and storage vessel as the specimen weight, measurements were recorded as the specimen weights before storage and the specimen weights after storage under different storage conditions. The empty weight of the storage vessel was also measured, and the moisture permeability was determined by the following formula.
After stirring the standard sample and the stored samples with a vortex mixer, each peptide solution was transferred to an HPLC vial (Deactivated Qsert vial by Waters Co.). Reverse-phase HPLC (HPLC system: Prominence by Shimadzu Corp.) was conducted under the conditions shown in Table 3 below for analysis of the peptide solutions, and chromatograms were obtained.
The peak area value for the peptide in the chromatogram was calculated, and the survival rate (survival rate before correction for water) was calculated using formula (2). The survival rate after correction for water was also calculated from the survival rate before correction for water using formula (3) to take into account the permeability of the container. […]

CCCCC(=O)N[C@@H](Cc1c[nH]cn1)C(=O)N[C@@H](CO)C(=O)N[C@@H](Cc1nnn[nH]1)C(=O)NCC(=O)N[C@H](C(=O)N[C@@H](Cc1ccccc1)C(=O)N[C@H](C(=O)N[C@@H](Cc1nnn[nH]1)C(=O)N[C@@H](CO)C(=O)N[C@@H](Cc1ccc(O)cc1)C(=O)N[C@@H](CO)C(=O)N[C@@H](CCCNC(=N)N)C(=O)N[C@@H](Cc1ccc(O)cc1)C(=O)N[C@@H](CCCNC(=N)N)C(=O)N[C@@H](CCCCN)C(=O)N[C@@H](CCC(N)=O)C(=O)N[C@@H](CCCC)C(=O)N[C@@H](C)C(=O)N[C@H](C(=O)N[C@@H](CCCCN)C(=O)N[C@@H](CCCCN)C(=O)N[C@@H](Cc1ccc(O)cc1)C(=O)N[C@@H](CC(C)C)C(=O)N[C@@H](C)C(=O)N[C@@H](C)C(=O)N[C@H](C(=O)N[C@@H](CC(C)C)C(N)=O)C(C)C)C(C)C)[C@@H](C)O)[C@@H](C)CC [Peptide 20, HSTzGI FTTzSY SRYRK QNIAVK KYLAA VL]
survival rate after correction for water, 40° C. 4 week: 69.5%
